From publication PMC10239413
No constants are given. Whether binding was seen depends on the method and setting. In cells and extracts the contact can be indirect. Some results given as binding are weak or reduced against the parent protein; the word gives no strength.

Chains of the proteins cited; added tags and fusions are not shown.
UniProt P54252: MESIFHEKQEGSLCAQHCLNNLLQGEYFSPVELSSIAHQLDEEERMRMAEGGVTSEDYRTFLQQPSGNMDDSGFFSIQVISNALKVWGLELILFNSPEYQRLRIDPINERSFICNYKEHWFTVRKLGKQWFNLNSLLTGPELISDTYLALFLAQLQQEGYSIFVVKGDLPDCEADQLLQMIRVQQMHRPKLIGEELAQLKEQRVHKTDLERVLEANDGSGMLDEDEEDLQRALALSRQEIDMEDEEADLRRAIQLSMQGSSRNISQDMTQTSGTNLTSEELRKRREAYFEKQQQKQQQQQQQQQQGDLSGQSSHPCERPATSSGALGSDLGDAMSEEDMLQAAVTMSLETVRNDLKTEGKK
UniProt Q14457: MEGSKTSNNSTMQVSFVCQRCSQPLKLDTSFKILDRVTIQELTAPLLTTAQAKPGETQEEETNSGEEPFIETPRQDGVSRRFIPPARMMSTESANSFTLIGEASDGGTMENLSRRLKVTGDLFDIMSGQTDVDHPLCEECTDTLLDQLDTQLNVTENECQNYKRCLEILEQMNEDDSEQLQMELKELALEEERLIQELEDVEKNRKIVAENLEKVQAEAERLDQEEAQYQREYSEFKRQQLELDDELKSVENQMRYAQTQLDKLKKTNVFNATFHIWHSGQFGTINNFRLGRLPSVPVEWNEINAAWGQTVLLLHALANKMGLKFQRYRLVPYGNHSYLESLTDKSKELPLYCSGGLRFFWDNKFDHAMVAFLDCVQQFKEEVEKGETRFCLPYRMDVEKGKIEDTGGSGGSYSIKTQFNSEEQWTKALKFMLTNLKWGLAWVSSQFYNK

Assays:
[1] = molecular target: ataxin-3 (human (endogenous in T24 and EJ)) (UniProt P54252); assay: co-IP; endogenous proteins in lysates of T24 and EJ cells; primary antibody (anti-VCP, anti-Beclin 1 or anti-ataxin-3) overnight at 4 °C, protein A + G magnetic beads, western blot; cells also with circHIPK3 overexpression (Fig. 6C) or treated with DBeQ 20 μM, 12 h (Fig. 5H)
[2] = molecular target: Beclin 1 (human (endogenous in T24 and EJ)) (UniProt Q14457); assay: as above

| Substance | binding [1] | binding [2] |
| --- | --- | --- |
| Beclin 1 (from UniProt Q14457 1-450) | binds | – |
| Valosin-containing protein (from UniProt P55072 1-806) | – | binds |
